From PubChem BioAssay AID2417 (National Center for Advancing Translational Sciences (NCATS), 2010)
In all, about 140,000 compounds went through this assay and about 4,300 (3.1%) were called active. This list was built around the results that the source calls inconclusive (neither active nor inactive); the mix of calls is not that of the screen.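 Rule for the calls: active = readout at or below -70, meaning at least 70% loss of cells showing the perinucleolar compartment, a nuclear body marking cancer cells; inconclusive = readout between -30 and a set limit; inactive = the rest.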

Assay: High Content Assay for Compounds that inhibit the Assembly of the Perinucleolar Compartment;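 note: plate controls were DMSO wells for no effect and camptothecin positive control wells for full effect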
Conditions: PC3M PTB-GFP, PNC prevalence imaging, 16 h; at 10 µM; stronger effect = lower value
How it was run: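 PC3M cells stably expressing PTB-GFP, 750–1000 cells/well, treated 16 h at 37 °C with compound (23 nl of library stock), in duplicate. After paraformaldehyde fixation and Hoechst stain, imaged at 20x; PNC prevalence scored by image analysis.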

| Structure (SMILES) | activity change (PNC), negative = inhibition |
| --- | --- |
| O=C(CCN1C(=O)c2ccccc2C1=O)N1CCN(Cc2ccc(Cl)cc2Cl)CC1 | inconclusive: -62.1% |
| CC1(C)CC(=O)C(C(c2cccnc2)C2C(=O)CC(C)(C)CC2=O)C(=O)C1 | inconclusive: -31.5% |
| C/C(=N/Oc1nc(C)cc(C)n1)c1ccc(F)cc1 | inconclusive: -45.2% |
| Cc1c(O)cc2n(c1=O)-c1ccccc1C2(C)C | inconclusive: -49.4% |
| Cc1cccc(Nc2nc3c(S(=O)(=O)c4ccccc4)nnn3c3ccccc23)c1 | active: -90.5% |
| O=C(Cn1cccc1C(=O)c1ccccc1)NCc1ccc2c(c1)OCO2 | inconclusive: -38.4% |
| COc1cc(C)nc2nc(SCc3ccccc3)nn12 | inactive: 15.6% |
| COc1cccc(CNC(=O)C(CCSC)NS(=O)(=O)c2ccc3c(c2)oc(=O)n3C)c1 (centres undefined) | inconclusive: -59.4% |
| CCOCCOC(=O)C(C)Oc1ccc(Oc2ncc(Cl)cc2Cl)cc1 (centres undefined) | inconclusive: -35.3% |
| CN1C(=O)N(C)C(NC(=O)Nc2ccccc2)C1NC(=O)Nc1ccccc1 (centres undefined) | inconclusive: -62.9% |
| CCS(=O)(=O)N1Cc2ccccc2CC1C(=O)NC(C)C12CC3CC(CC(C3)C1)C2 (centres undefined) | inconclusive: -36% |
| COC(=O)c1ccc(C(=O)OC)c(NC(=O)CSCc2ccccc2Br)c1 | inconclusive: -65.2% |
| CCn1c(-c2ccco2)nc2ccccc21 | inconclusive: -62.4% |
| CN1CCN(C(=S)c2ccc([N+](=O)[O-])cc2)CC1 | inactive: -18.2% |
| CC(C)C(c1nnnn1C1CCCC1)N(C)C1CCCCC1 (centres undefined) | inactive: 41.4% |
| CNC(=O)c1nn(-c2ccc(C)cc2)ccc1=O | inconclusive: -72.9% |
| C=CCNC(=O)c1ccc(OC)cc1OC | inconclusive: -58.1% |
| O=C(CSc1nc2c(sc3ccccc32)c(=O)n1Cc1ccco1)NCC1CCCO1 (centres undefined) | active: -89.1% |
| O=C(CSc1nnc(-c2ccc(Br)o2)n1Cc1ccccc1)c1ccccc1F | inconclusive: -51.1% |
| CC(NC(=O)c1cncc(Br)c1)c1ccc(S(N)(=O)=O)cc1 (centres undefined) | inconclusive: -30.5% |
| CCOC(=O)c1c(C(=O)OCC)c(C)n(N2C(=O)CSC2=S)c1C | inactive: 8.09% |
| CC(=O)Nc1ccc(S(=O)(=O)NC2=NCN(CCOC(=O)c3ccccc3)CN2)cc1 | inconclusive: -36.9% |
| COC(=O)CSc1nc2nc(C)cc(C)n2n1 | active: -84.7% |

| Structure (SMILES) | activity change (PNC), negative = inhibition |
| --- | --- |
| COc1ccc(S(=O)(=O)NCCC(=O)NC2CCCCCCC2)cc1 | inconclusive: -34.7% |
| COc1ccc(OCCSc2nnnn2C2CCCCC2)cc1 | inconclusive: -60.8% |
| CCOc1ccc(N2C(=O)CCC2=O)cc1 | inconclusive: -42.7% |
| CC(=O)NCCc1nc2ccccc2n1Cc1ccccc1 | inconclusive: -43.1% |
| CCN(CCCNC(=O)C1CCN(S(=O)(=O)c2cccc3nonc23)CC1)Cc1ccccc1 | inconclusive: -75.6% |
| COc1ccc2cc(C3(C)NC(=O)N(CC(=O)NCCC4=CCCCC4)C3=O)ccc2c1 (centres undefined) | inconclusive: -48.3% |
| Cc1nc(NS(=O)(=O)c2ccccc2)sc1C(C)(C)C | inconclusive: -48.8% |
| CCN(CC)S(=O)(=O)c1cccc(C(=O)Nc2ccc(C#N)cc2)c1 | inconclusive: -30.4% |
| COc1ccccc1NC(=O)C1=C(C)Nc2nnnn2C1c1ccncc1 (centres undefined) | inactive: 33.9% |
| CCn1c(=N)n(CC(O)c2ccccc2)c2ccccc21 (centres undefined) | inconclusive: -48.1% |
| O=C(NC12CC3CC(CC(C3)C1)C2)c1ccc(S(=O)(=O)N2CCOCC2)cc1 | inconclusive: -57% |
| O=C1c2ccccc2NC(c2ccccn2)N1c1ccccc1F (centres undefined) | inconclusive: -36.4% |
| O=C(NC(Cc1c[nH]c2ccccc12)C(=O)Nc1ccc(F)cc1)c1cccs1 (centres undefined) | inconclusive: -33.3% |
| CCn1c(/N=C/c2ccccc2NS(=O)(=O)c2ccc(C)cc2)nc2ccccc21 | inconclusive: -38.9% |
| N#C[C@@H]1[C@@H]2C(=O)N(c3ccc4c(c3)OCCO4)C(=O)[C@@H]2C2c3ccccc3C=CN21 (some centres undefined) | active: -100% |
| O=C(COC(=O)c1ccc2c(=O)n3c(nc2c1)CCC3)Nc1ccccc1F | inactive: 29.1% |
| Cc1cc(NCCCn2ccnc2)n2nc(C)c(-c3ccc(Cl)cc3)c2n1 | inconclusive: -49.4% |
| CCOC(=O)C(NC(=O)c1ccccc1Cl)(Nc1ccc(C)c(C)c1)C(F)(F)F (centres undefined) | inconclusive: -36.1% |
| O=C(N/N=C/c1cccn1-c1ccc([N+](=O)[O-])cc1)C(O)c1ccccc1 (centres undefined) | inconclusive: -77.4% |
| CC(C)OCCCNC(=O)c1cc(Sc2ccc(F)cc2)nc2ccccc12 | inactive: -1.71% |
| CCCCCCCCC(=O)NC(NC(=S)N1CCOCC1)C(Cl)(Cl)Cl (centres undefined) | active: -100% |
| CCCCCOc1ccccc1C(=O)NCC(=O)O | inactive: 21.1% |
| O=[N+]([O-])c1ccc(N2CCCCC2)cc1N1CCOCC1 | inactive: 2.36% |

| Structure (SMILES) | activity change (PNC), negative = inhibition |
| --- | --- |
| Cc1nn(-c2ccccc2)c2c1C(c1cccs1)C(C#N)=C(N)O2 (centres undefined) | inactive: -27.4% |
| CNC(=O)c1c(NC(=O)c2nc3ccccc3s2)sc2c1CCC2 | inconclusive: -34% |
| COC(=O)c1cn(NC(=O)/C=C/c2cc(OC)ccc2OC)c(=O)c2ccccc12 | inconclusive: -52% |
| COc1cccc(-c2cc(C(F)(F)F)c3c(N)c(C#N)sc3n2)c1 | inactive: 1.97% |
| Cn1c(=O)n(C)c2cc(C(=O)Nc3ccc4c(c3)OCO4)ccc21 | active: -87% |
| Cc1ccc(CN2C(=O)N/C(=C/c3cc(C)n(-c4ccccn4)c3C)C2=O)cc1 | inconclusive: -49.6% |
| Cc1ccc(C(=O)Nc2cc(C)c(OCC(=O)N3CCOCC3)c(C)c2)cc1 | inactive: -25.4% |
| C=CCn1c(=O)c2ccccc2n2c(SCc3nnc(-c4ccccc4Br)o3)nnc12 | inactive: -2.26% |
| Cc1ccc(Nc2nc(=O)c3cccnc3s2)cc1 | inactive: 22.7% |
| CCCS(=O)(=O)N1CCC(C(=O)NCCN(CC)c2ccccc2)CC1 | inconclusive: -42% |
| CCC1CCC2(CC1)NC(=O)N(CC(=O)c1c(C)[nH]c3ccccc13)C2=O (centres undefined) | inconclusive: -72.1% |
| CC(=O)N1CCc2cc(S(=O)(=O)NCCC(=O)NC3CCCc4ccccc43)ccc21 (centres undefined) | inconclusive: -70.4% |
| O=C(CSc1nnc(CCCOc2ccc(Cl)cc2Cl)o1)Nc1ccc(C(=O)O)cc1 | active: -85.5% |
| COc1cc(NS(=O)(=O)c2ccc(NC(C)=O)cc2)cc(OC)c1 | inconclusive: -48.1% |
| COc1cccc(-c2nnn(CC(=O)Nc3cc(OC)c(NC(=O)c4ccco4)cc3OC)n2)c1 | inconclusive: -33.6% |
| Cc1noc(C)c1C(=O)OCC(=O)NC1CC1 | inactive: -16.2% |
| CCOC(=O)C1=C(C)OC(N)=C(C#N)C1c1ccc(OC)c(C)c1OC (centres undefined) | inconclusive: -59.7% |
| COc1ccc(CCNC(=O)CSc2nnc(-c3cccc(F)c3)o2)cc1OC | inconclusive: -33% |
| COc1cc(CNc2ccc(N3CCCC3)cc2)ccc1OCc1ccccc1F | inactive: 24.3% |
| CCOC(=O)CN1C(=O)CN(c2ccc(C)cc2)C1=O | inconclusive: -40.7% |
| COc1ccc(/C(=C/c2ccc(OC(F)F)c(OC)c2)C(=O)O)cc1OC | inactive: -11.3% |
| O=c1oc(/C=C/c2ccco2)nc2sc3c(c12)CCC3 | inactive: 69.2% |
| COc1cccc(NC(=O)CN2CCN(c3nc(-c4cccc(OC)c4)cs3)CC2)c1 | inactive: 43% |

Filtered by structure: those above with an NH in an aromatic ring (2)

| Structure (SMILES) | activity change (PNC), negative = inhibition |
| --- | --- |
| O=C(NC(Cc1c[nH]c2ccccc12)C(=O)Nc1ccc(F)cc1)c1cccs1 (centres undefined) | inconclusive: -33.3% |
| CCC1CCC2(CC1)NC(=O)N(CC(=O)c1c(C)[nH]c3ccccc13)C2=O (centres undefined) | inconclusive: -72.1% |

Arranged by formula weight (largest number first): 3 of the compounds above

| Structure (SMILES) | activity change (PNC), negative = inhibition |
| --- | --- |
| O=C(CSc1nnc(CCCOc2ccc(Cl)cc2Cl)o1)Nc1ccc(C(=O)O)cc1 | active: -85.5% |
| CNC(=O)c1c(NC(=O)c2nc3ccccc3s2)sc2c1CCC2 | inconclusive: -34% |
| COc1cccc(-c2cc(C(F)(F)F)c3c(N)c(C#N)sc3n2)c1 | inactive: 1.97% |

Following part.

| Structure (SMILES) | activity change (PNC), negative = inhibition |
| --- | --- |
| O=C(Nc1ccc(O)cc1C(=O)O)c1cccc(Br)c1 | inactive: -5.58% |
| CCOC(=O)C1=C(C)Nc2ncnn2C1c1ccc(N(C)C)cc1 (centres undefined) | inactive: 14.3% |
| CC(C)c1ccc(C(=O)NCCCN2CCN(CCCNC(=O)c3ccc(C(C)C)cc3)CC2)cc1 | inactive: 1.1% |
| OC(CN1CCN(c2ccccc2)CC1)c1ccc2c(c1)CCN2 (centres undefined) | inactive: 40.3% |
| Cc1ccc(S(=O)(=O)N2CCCC2C(=O)OCc2nc3sc(C)c(C)c3c(=O)[nH]2)cc1 (centres undefined) | inactive: 7.12% |
| COC(=O)c1ccc(C2/C(=C(\O)c3cccc(OC)c3)C(=O)C(=O)N2CCCN(C)C)cc1 (centres undefined) | inconclusive: -32.2% |
| O=C(NCc1ccccc1Cl)C1CCCN(S(=O)(=O)c2cccc3nsnc23)C1 (centres undefined) | inconclusive: -37% |
| Cc1cc(N2CCC(C(=O)NCC3CC3)CC2)nc(-c2ccccc2)n1 | inconclusive: -50% |
| O=C(Nc1ccccc1Br)C1CCC(=O)N1Cc1ccccc1Cl (centres undefined) | inconclusive: -30.7% |
| CCN(CCNC(=O)C1CCCN(S(=O)(=O)CC)C1)c1ccccc1 (centres undefined) | inconclusive: -33.7% |
| Cc1ccc(-c2csc3ncn(-n4c(C)ccc4C)c(=O)c23)o1 | inconclusive: -32.3% |
| O=C1CN(C(=O)COC(=O)/C=C/c2ccc(OC(F)F)cc2)c2ccccc2N1 | inconclusive: -49.7% |
| COc1ccc(-c2nnc(SCc3nnc(-c4ccccc4)o3)n2-c2ccccc2)cc1 | inconclusive: -36.6% |
| O=C(NC1CCCCC1)NC1CCN(CC(=O)N2CCOCC2)CC1 | inconclusive: -45.5% |
| Cc1ccnc(N2C(=O)c3ccccc3C2Nc2cccc(C)c2C)c1 (centres undefined) | inactive: -16.3% |
| Cc1sc2ncnc(SCC(=O)c3cccs3)c2c1C | inconclusive: -67.5% |
| Cc1ccc2nsnc2c1N(S(C)(=O)=O)S(C)(=O)=O | inconclusive: -32% |
| Cc1cccc(/C=N/NC(=O)Cn2nccc2C)n1 | inconclusive: -32.3% |
| CN1CCN(NC(=O)c2cccc(Br)c2)CC1 | inconclusive: -53.5% |
| Cc1ccc(S(=O)(=O)Cc2cn3cccnc3n2)cc1 | inconclusive: -31.7% |
